PubChem BioAssay AID720505 | Drosophila RNAi Screening Center – 2013
The screen tested about 20,000 reagents; shown is an unselected part of those that have a named target and a result. In the full data, about 2,100 (10%) got an active call. 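Raw plate signals without normalisation; calls rest on control-based scores that were not deposited; replicate 2 separates called from uncalled poorly.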 A plus sign joins genes that one reagent is predicted to hit. Not stated in the record: the amount of reagent, the time to read-out.

- Screen: 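Genes needed for store-operated calcium entry in fly cells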 (primary screen)
- Cell system: Drosophila S2R+ cells
- Reagents: long dsRNA against Drosophila genes
- Conditions: thapsigargin (2 µM) in calcium-free buffer to empty internal stores, then 2 mM calcium added back
- Read-out: 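Fluo-4 signal in 384-well plates read on a FLIPR after thapsigargin (2 µM, calcium-free) store depletion and 2 mM calcium add-back; unnormalised mean endpoint per well; screen run twice, selected wells retested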
- Scale: calcium signal and retest calcium signal: higher = more calcium entry after store depletion
- Hit rule: 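Knock-downs counted as hits when calcium entry dropped relative to STIM1 positive and Rho1 negative controls present on each plate; roughly 1500 genes called, with reductions of differing size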
- Meaning of the calls: active = called as lowering calcium entry; inactive = not called

| gene | PubChem SID | calcium signal, replicate 1 | calcium signal, replicate 2 | retest calcium signal, replicate 1 | retest calcium signal, replicate 2 | outcome |
| --- | --- | --- | --- | --- | --- | --- |
| Rpt4R (GeneID 39351) | SID104190583 | 92.4 | 94.5 | – | – | inactive |
| TRAM (GeneID 31042) | SID104197970 | 97.2 | 112 | – | – | inactive |
| TRAM (GeneID 31042) | SID104198443 | 141 | 132 | – | – | inactive |
| CG15124 (GeneID 37256) | SID104186338 | 188 | 165 | – | – | inactive |
| twz (GeneID 37456) | SID104183861 | 134 | 85.2 | – | – | inactive |
| blo (GeneID 35866) | SID104185729 | 151 | 175 | – | – | inactive |
| CG1824 (GeneID 32208) | SID104199588 | 66.8 | 86.2 | – | – | inactive |
| CG16798 (GeneID 35308) | SID104182309 | 186 | 136 | – | – | inactive |
| CG14650 (GeneID 40566) | SID104192028 | 67.5 | 143 | 98.7 | 65.5 | inactive |
| Lcp65Ad (GeneID 38707) | SID104191003 | 120 | 119 | – | – | inactive |
| CG17290 (GeneID 36938) | SID104186454 | 148 | 122 | – | – | inactive |
| CG46441 (GeneID 42423) | SID104195353 | 151 | 267 | – | – | inactive |
| Hsp83 (GeneID 38389) | SID104188456 | 86.7 | 135 | – | – | inactive |
| CG4622 (GeneID 37919) | SID104184271 | 188 | 116 | – | – | inactive |
| cyst (GeneID 35237) | SID104181815 | 108 | 125 | – | – | inactive |
| Gr68a (GeneID 39324) | SID104190595 | 52.1 | 83.2 | – | – | inactive |
| CG42869 + Sfp93F | SID104193297 | 43.2 | 107 | – | – | active |
| Cpr78Cc (GeneID 40355) | SID104191638 | 59.2 | 103 | – | – | active |
| Sgf29 (GeneID 37429) | SID104183868 | 148 | 98.1 | – | – | inactive |
| Npc1a (GeneID 34358) | SID104183170 | 150 | 130 | – | – | inactive |
| ppk6 (GeneID 37286) | SID104185854 | 146 | 128 | – | – | inactive |
| Trmt6 (GeneID 33920) | SID104183064 | 99.4 | 99.9 | – | – | inactive |
| Egm (GeneID 36242) | SID104187111 | 179 | 154 | – | – | inactive |
| Egm (GeneID 36242) | SID104202219 | 73.1 | 84.6 | – | – | inactive |
| JIL-1 (GeneID 39241) | SID104190992 | 65.1 | 99.1 | – | – | active |
| Zasp67 (GeneID 39148) | SID104189961 | 59 | 103 | – | – | active |
| Rab30 (GeneID 33988) | SID104182929 | 198 | 110 | – | – | inactive |
| heca (GeneID 43604) | SID104196756 | 156 | 109 | – | – | inactive |
| heca (GeneID 43604) | SID104202347 | 109 | 120 | – | – | inactive |
| PpD5 (GeneID 44148) | SID104184433 | 151 | 84.9 | – | – | inactive |
| PpD5 (GeneID 44148) | SID104202669 | 95.1 | 155 | – | – | inactive |
| Calr (GeneID 41166) | SID104196406 | 131 | 91.3 | – | – | inactive |
| CG15712 (GeneID 36843) | SID104186375 | 174 | 130 | – | – | inactive |
| CG32237 (GeneID 38584) | SID104188104 | 87.7 | 59.3 | – | – | inactive |
| CG32237 (GeneID 38584) | SID104188107 | 103 | 90.6 | – | – | inactive |
| CG2187 (GeneID 43743) | SID104195217 | 90 | 121 | – | – | inactive |
| Bcs1 (GeneID 34360) | SID104182581 | 171 | 129 | – | – | inactive |
| Not1 (GeneID 5740252) | SID104186579 | 167 | 150 | – | – | inactive |
| Not1 (GeneID 5740252) | SID104186586 | 191 | 131 | – | – | inactive |
| mRpL17 (GeneID 38046) | SID104188142 | 82.6 | 81 | – | – | inactive |
| Hsc70-2 (GeneID 41609) | SID104196502 | 117 | 171 | – | – | inactive |
| ringer (GeneID 39813) | SID104190247 | 84.2 | 105 | – | – | inactive |
| CG34149 (GeneID 4379861) | SID104194329 | 176 | 134 | – | – | inactive |
| CG5592 (GeneID 38662) | SID104190316 | 109 | 48.2 | – | – | inactive |
| Rab32 (GeneID 35940) | SID104184938 | 64.6 | 89.3 | – | – | inactive |
| Rab32 (GeneID 35940) | SID104187314 | 114 | 113 | – | – | inactive |
| Ir52b (GeneID 246631) | SID104186055 | 50 | 140 | – | – | active |
| eIF4B (GeneID 3355041) | SID104200775 | 93.8 | 100 | – | – | inactive |
| p120ctn (GeneID 3355143) | SID104187545 | 81.6 | 158 | – | – | inactive |
| koi (GeneID 35594) | SID104184772 | 109 | 74.8 | – | – | inactive |
| koi (GeneID 35594) | SID104184783 | 92.6 | 97.8 | – | – | inactive |
| CG30324 (GeneID 246540) | SID104202055 | 108 | 196 | – | – | inactive |
| CG43271 (GeneID 12798001) | SID104181406 | 185 | 117 | 6021 | 77.3 | inactive |
| CG43271 (GeneID 12798001) | SID104201411 | 158 | 112 | – | – | inactive |
| CG9775 (GeneID 40576) | SID104192122 | 30.8 | 95.7 | – | – | active |
| CG9775 (GeneID 40576) | SID104202064 | 105 | 101 | – | – | inactive |
| CG2082 (GeneID 40713) | SID104191917 | 132 | 86.5 | – | – | inactive |
| Mtp (GeneID 35362) | SID104183008 | 135 | 78.9 | – | – | inactive |
| CG18542 + CG32939 | SID104195134 | 111 | 111 | – | – | inactive |
| CG33268 (GeneID 2768979) | SID104189935 | 123 | 110 | – | – | inactive |
| CG7330 (GeneID 40007) | SID104190605 | 95.1 | 129 | – | – | inactive |
| CG7330 (GeneID 40007) | SID104190606 | 88.6 | 128 | – | – | inactive |
| CG12446 (GeneID 33147) | SID104200410 | 125 | 98.7 | – | – | inactive |
| jus (GeneID 43453) | SID104194653 | 124 | 106 | – | – | inactive |
| jus (GeneID 43453) | SID104194654 | 71.2 | 105 | – | – | active |
| jus (GeneID 43453) | SID104202375 | 116 | 149 | – | – | inactive |
| bor (GeneID 53565) | SID104196707 | 125 | 151 | – | – | inactive |
| CG9626 (GeneID 40979) | SID104196317 | 119 | 120 | – | – | inactive |
| Chchd2 (GeneID 32701) | SID104199723 | 112 | 129 | 111 | 109 | inactive |
| CG5292 (GeneID 42079) | SID104195555 | 157 | 115 | – | – | inactive |
| Fur2 (GeneID 32604) | SID104199609 | 116 | 135 | – | – | inactive |
| RhoGAP102A (GeneID 43781) | SID104196937 | 136 | 158 | – | – | inactive |
| CG17739 (GeneID 36333) | SID104186481 | 224 | 102 | – | – | inactive |
| CG12426 (GeneID 43342) | SID104194308 | 122 | 111 | – | – | inactive |
| CG17376 (GeneID 59227) | SID104201391 | 106 | 78.1 | – | – | inactive |
| PDZ-GEF (GeneID 33881) | SID104183023 | 63.4 | 193 | – | – | active |
| trus (GeneID 41540) | SID104195564 | 146 | 110 | – | – | inactive |
| Smurf (GeneID 36999) | SID104187433 | 127 | 159 | – | – | inactive |
| CG11089 + CG31381 | SID104194082 | 294 | 273 | – | – | inactive |
| CG43428 (GeneID 12798467) | SID104185997 | 106 | 191 | – | – | inactive |
| Ppcs (GeneID 42295) | SID104193919 | 151 | 210 | – | – | inactive |
| CG10918 (GeneID 33123) | SID104200264 | 66.8 | 103 | – | – | active |
| CAH9 (GeneID 43264) | SID104195755 | 145 | 164 | – | – | inactive |
